Data as given in PubChem BioAssay AID504808 (Drosophila RNAi Screening Center, 2011).

Purpose: 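Genes whose loss lifts activity of an E2F-responsive reporter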 (primary screen)
Cell system: Drosophila S2 cells
Reagents: long dsRNA against Drosophila genes
Detection: 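Dual luciferase plate measurements; E2F-specific signal taken as firefly over Renilla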
Reading the numbers: E2F firefly: higher = more E2F reporter activity; Renilla normaliser: higher = more normaliser reporter signal
Hit rule: 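Called active if the normalised E2F reporter went up by over 50%; the cutoff is arbitrary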
The deposit covers about 21,000 reagents; this is a random part of those with a known target gene and a result. Of all reagents, 18 (0.084%) are marked active. 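Raw counts without plate normalisation, one of two replicates; the ratio scores behind the calls were not deposited.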 Names joined by + are all predicted targets of the reagent. No sequences are given here. Not stated in the record: the amount of reagent, the time to read-out.

Gene,dsRNA,"E2F firefly, rep 1","Renilla normaliser, rep 1",outcome
CG31436,DRSC14661,1.14e5,5630,inactive
Sgs4,DRSC18715,1.32e5,6114,inactive
jigr1,DRSC13724,80876,2513,inactive
jigr1,DRSC15233,1.07e5,5629,inactive
CG42750,DRSC02458,91474,3897,inactive
CG42750,DRSC03019,89882,4037,inactive
CG42750,DRSC03024,1.04e5,4013,inactive
CG17508,DRSC07771,1.01e5,4096,inactive
CG7730,DRSC10909,64455,3976,inactive
CG5412,DRSC15796,68853,4347,inactive
CG31924,DRSC00689,1.68e5,5650,inactive
eIF3k,DRSC04056,97977,4270,inactive
zen,DRSC12632,1.35e5,5606,inactive
tun,DRSC05592,1.21e5,4427,inactive
tun,DRSC07127,84064,4052,inactive
Lam,DRSC03359,1.42e5,4765,inactive
Ccp84Aa,DRSC12586,1.31e5,6245,inactive
Tep1,DRSC03450,1.00e5,4811,inactive
ort,DRSC16240,1.55e5,7523,inactive
abo,DRSC02926,1.51e5,5713,inactive
E(Pc),DRSC05281,1.38e5,6391,inactive
E(Pc),DRSC07408,95442,4447,inactive
CG1737,DRSC19771,46006,3129,inactive
PIG-H + Kmn2,DRSC12653,1.02e5,5449,inactive
Set,DRSC16861,76019,3551,inactive
CG4194,DRSC18520,1745,924,inactive
msb1l,DRSC03572,76203,3344,inactive
RluA-2,DRSC02939,79962,3005,inactive
ringer,DRSC10455,1.81e5,8996,inactive
CG17361,DRSC10266,1.58e5,7488,inactive
Dgat2,DRSC06803,3354,62,inactive
CG1504,DRSC20513,1.34e5,6069,inactive
Reg-2,DRSC08690,73746,2806,inactive
CG1602,DRSC06601,1.47e5,5295,inactive
Hmt4-20,DRSC18482,1497,924,inactive
frac,DRSC10867,74728,3691,inactive
CG32856,DRSC13124,97381,2665,inactive
CG12011,DRSC08219,94741,3516,inactive
CG6059,DRSC15958,1804,996,inactive
nAChRalpha2,DRSC17009,69934,3539,inactive
ATPsynCF6,DRSC14092,98265,6168,inactive
Osi21,DRSC02408,1.70e5,5926,inactive
Cog2,DRSC16987,1.00e5,6215,inactive
Cyp4c3,DRSC16631,1853,864,inactive
PQBP1,DRSC14393,63005,2765,inactive
Prx3,DRSC15883,64863,3214,inactive
tim,DRSC00841,82270,3188,inactive
Ist1,DRSC09697,79189,3614,inactive
CG11474,DRSC04112,88898,4035,inactive
PIG-N,DRSC06837,1.47e5,4920,inactive
CG13171,DRSC06299,96915,3961,inactive
Kat60,DRSC12378,1.25e5,5574,inactive
CG11381,DRSC17780,58674,3844,inactive
Tbcc,DRSC00223,1.36e5,5514,inactive
CG7194,DRSC10784,1.10e5,4068,inactive
Cnep1r2,DRSC10950,85022,3437,inactive
isoQC,DRSC11790,1.46e5,6193,inactive
Rala,DRSC18703,87670,6183,inactive
gkt,DRSC00821,1.38e5,4920,inactive
CG32248,DRSC08102,1.41e5,4483,inactive
Tbh,DRSC18723,56731,4306,inactive
CG14495,DRSC06466,1.47e5,5574,inactive
Fem-1,DRSC07322,85376,4133,inactive
CR42548,DRSC09514,1.33e5,4686,inactive
CG9098,DRSC03136,77449,3722,inactive
CG11768,DRSC14377,1.38e5,6682,inactive
Uba1,DRSC07567,2854,212,inactive
CG15167,DRSC02468,1.06e5,4684,inactive
croc,DRSC11884,1.29e5,6852,inactive
CG10077,DRSC09691,58092,3058,inactive
sol,DRSC20587,1.30e5,6484,inactive
Lipt2,DRSC12338,88667,3325,inactive
CG15841 (retired record) + Acp33A,DRSC01859,1.60e5,5574,inactive
CanB2,DRSC07355,59588,3453,inactive
Acox57D-d,DRSC04561,83998,3554,inactive
Cyp6a23,DRSC07383,1.01e5,4661,inactive
CG15831 (retired record),DRSC20816,1.39e5,6572,inactive
stw,DRSC04842,1.16e5,5703,inactive
stw,DRSC04843,1.14e5,4199,inactive
Spn28B,DRSC02982,1.46e5,5151,inactive
Vha16-3,DRSC10872,1.26e5,6885,inactive
CG6726,DRSC16101,1.15e5,6201,inactive
cry,DRSC16928,1.47e5,7983,inactive
P5cr,DRSC16782,1.43e5,7215,inactive

In a second layout: 14 of the entries above
Gene	dsRNA	E2F firefly, rep 1	Renilla normaliser, rep 1	outcome
sol	DRSC20587	1.30e5	6484	inactive
Lipt2	DRSC12338	88667	3325	inactive
CG15841 (retired record) + Acp33A	DRSC01859	1.60e5	5574	inactive
CanB2	DRSC07355	59588	3453	inactive
Acox57D-d	DRSC04561	83998	3554	inactive
Cyp6a23	DRSC07383	1.01e5	4661	inactive
CG15831 (retired record)	DRSC20816	1.39e5	6572	inactive
stw	DRSC04842	1.16e5	5703	inactive
stw	DRSC04843	1.14e5	4199	inactive
Spn28B	DRSC02982	1.46e5	5151	inactive
Vha16-3	DRSC10872	1.26e5	6885	inactive
CG6726	DRSC16101	1.15e5	6201	inactive
cry	DRSC16928	1.47e5	7983	inactive
P5cr	DRSC16782	1.43e5	7215	inactive
